Data reported in paper PMC5718554.
These are yes or no findings as the source states them, for the method shown.

Target: CHOP_(1-120) (C/EBP-homologous protein, N-terminal and basic regions, residues 1 to 120) (human) (UniProt P35638)
Test: AUC; sedimentation equilibrium (short column, 20 and 24 krpm, single species model) and sedimentation velocity (48 krpm), 20°C, protein at 1.08 mg/ml, absorbance at 280 nm; both purified

B1: CHOP_(1-120) (C/EBP-homologous protein, N-terminal and basic regions, residues 1 to 120) (domain or fragment, UniProt P35638 1-120)
chain: MAAESLPFSFGTLSSWELEAWYEDLQEVLSSDENGGTYVSPPGNEEEESKIFTTLDPASLAWLTEEEPEPAEVTSTSQSPHSPDSSQSSLAQEEEEEDQGRTRKRKQSGHSPARAGKQRM
- binding: no binding (tested: 1.08 mg/ml)
